Patent publication US20160090556A1, “PRODUCTS COMPRISING MALODOR REDUCTION MATERIALS” (The Procter & Gamble Company, priority 2014, published 2016)
Some compounds share one wording; it may come from a single statement.

assay: Melamine formaldehyde PMC Headspace Response Ratio; settings: not given

Structure (SMILES)	Melamine formaldehyde PMC Headspace Response Ratio (Comment Code I)
CCCCCCCCO [Material 580]	I (Melamine formaldehyde PMC Headspace Response Ratio greater than or equal to 10)
C=CCCC(=O)c1ccccc1 [Material 792]	I (Melamine formaldehyde PMC Headspace Response Ratio greater than or equal to 10)
C=C/C(C)=C/CC=C(C)C [Material 1078]	I (Melamine formaldehyde PMC Headspace Response Ratio greater than or equal to 10)
CC(O)CO (stereo not shown) [Material 993]	I (Melamine formaldehyde PMC Headspace Response Ratio greater than or equal to 10)
CCCCCCCC(C)=O [Material 840]	I (Melamine formaldehyde PMC Headspace Response Ratio greater than or equal to 10)
OCCc1ccccc1 [Material 955]	I (Melamine formaldehyde PMC Headspace Response Ratio greater than or equal to 10)

same assay, conditions: class code letter within Comment Code

Structure (SMILES)	Melamine formaldehyde PMC Headspace Response Ratio (Comment Code I)
CCCCCC1CCC(=O)O1 (stereo not shown) [Material 321]	I (Melamine formaldehyde PMC Headspace Response Ratio greater than or equal to 10)
CC/C=C\CCCCCO [Material 530]	I (Melamine formaldehyde PMC Headspace Response Ratio greater than or equal to 10)
C=CC(=C)CCC=C(C)C [Material 33]	I (Melamine formaldehyde PMC Headspace Response Ratio greater than or equal to 10)
CCCCCCCC=O [Material 31]	I (Melamine formaldehyde PMC Headspace Response Ratio greater than or equal to 10)

same assay, conditions: code letter I

Structure (SMILES)	Comment Code: Melamine formaldehyde PMC Headspace Response Ratio
COc1cc(C)cc(O)c1 [Material 811]	I (Melamine formaldehyde PMC Headspace Response Ratio greater than or equal to 10)
CCOCCOCCO [Material 579]	I (Melamine formaldehyde PMC Headspace Response Ratio greater than or equal to 10)
N#C/C=C/c1ccccc1 [Material 556]	I (Melamine formaldehyde PMC Headspace Response Ratio greater than or equal to 10)
C/C=C/c1ccc(O)c(OC)c1 [Material 1084]	I (Melamine formaldehyde PMC Headspace Response Ratio greater than or equal to 10)
CC/C=C\CCOC(=O)CC [Material 538]	I (Melamine formaldehyde PMC Headspace Response Ratio greater than or equal to 10)
CC=Cc1ccc(O)c(OC)c1 [Material 214]	I (Melamine formaldehyde PMC Headspace Response Ratio greater than or equal to 10)

assay: Melamine formaldehyde PMC leakage; settings: not given

Structure (SMILES)	Melamine formaldehyde PMC leakage (Comment Code J)
CCCCCC(=O)Oc1ccc(C)cc1 [Material 939]	J (Melamine formaldehyde PMC leakage less than or equal to 5%)
CC1=CC2CC(C3OCCO3)C1CC2C(C)C (stereo not shown) [Material 912]	J (Melamine formaldehyde PMC leakage less than or equal to 5%)
CC(=O)OC(C)CCC=C(C)CCC=C(C)C (racemic) [Material 881]	J (Melamine formaldehyde PMC leakage less than or equal to 5%)
CC1=CC2C(C(C)C)CCC(C)(O)C2CC1 (stereo not shown) [Material 716]	J (Melamine formaldehyde PMC leakage less than or equal to 5%)
CCCCCCCCCC(=O)O [Material 582]	J (Melamine formaldehyde PMC leakage less than or equal to 5%)
O=C(OCCc1ccccc1)c1ccccc1 [Material 967]	J (Melamine formaldehyde PMC leakage less than or equal to 5%)
C/C(=C\C#N)CCc1ccccc1 [Material 894]	J (Melamine formaldehyde PMC leakage less than or equal to 5%)
CC1=CCC(/C=C/C(C)(C)C(C)O)C1(C)C (stereo not shown) [Material 985]	J (Melamine formaldehyde PMC leakage less than or equal to 5%)
COC1CC2CC1C1CC(C=O)CC21 (stereo not shown) [Material 1027]	J (Melamine formaldehyde PMC leakage less than or equal to 5%)
CC(C)C1OCCC2(CC3CCC2(C)C3(C)C)O1 (stereo not shown) [Material 659]	J (Melamine formaldehyde PMC leakage less than or equal to 5%)
CC(CO)CCCc1ccccc1 (stereo not shown) [Material 1012]	J (Melamine formaldehyde PMC leakage less than or equal to 5%)
CCC(C)C(=O)OCCc1ccccc1 (stereo not shown) [Material 954]	J (Melamine formaldehyde PMC leakage less than or equal to 5%)
O=C1CCCCCCCCCCOCCCCO1 [Material 562]	J (Melamine formaldehyde PMC leakage less than or equal to 5%)
COC(=O)c1ccccc1NC(O)CC(C)c1ccccc1 (stereo not shown) [Material 1093]	J (Melamine formaldehyde PMC leakage less than or equal to 5%)
CC1=CC(=O)CC(C)C12CCC(=C(C)C)C2 (stereo not shown) [Material 610]	J (Melamine formaldehyde PMC leakage less than or equal to 5%)
C=CC(C)(CCC=C(C)C)OC(C)OCC (stereo not shown) [Material 916]	J (Melamine formaldehyde PMC leakage less than or equal to 5%)
CC1=CCC(CCC(C)CO)C1(C)C (stereo not shown) [Material 600]	J (Melamine formaldehyde PMC leakage less than or equal to 5%)
CCCCCOC(=O)C=Cc1ccccc1 [Material 671]	J (Melamine formaldehyde PMC leakage less than or equal to 5%)
COC1CC2CC1C1CC(C=O)CC21 (stereo not shown) [Material 1026]	J (Melamine formaldehyde PMC leakage less than or equal to 5%)

same assay, conditions: class code letter within Comment Code

Structure (SMILES)	Melamine formaldehyde PMC leakage (Comment Code J)
C=CCc1cc(OC)c2c(c1)OCO2 [Material 37]	J (Melamine formaldehyde PMC leakage less than or equal to 5%)
CCCCCCCCOC(=O)c1ccco1 [Material 28]	J (Melamine formaldehyde PMC leakage less than or equal to 5%)
CC/C=C\CCOC(=O)C(C)CC (stereo not shown) [Material 544]	J (Melamine formaldehyde PMC leakage less than or equal to 5%)
CCCCCCC1C(=O)CCC1C(=O)OC (stereo not shown) [Material 450]	J (Melamine formaldehyde PMC leakage less than or equal to 5%)
CCC(=O)CCC1C(C)=CCCC1(C)C (stereo not shown) [Material 293]	J (Melamine formaldehyde PMC leakage less than or equal to 5%)
CCCCCCCCCC/C=C\C#N [Material 11]	J (Melamine formaldehyde PMC leakage less than or equal to 5%)
CCCCCCCCCCCCO [Material 174]	J (Melamine formaldehyde PMC leakage less than or equal to 5%)
CC(C=O)Cc1ccc2c(c1)OCO2 (stereo not shown) [Material 288]	J (Melamine formaldehyde PMC leakage less than or equal to 5%)
C=CCCCCCCC/C=C/CC#N [Material 137]	J (Melamine formaldehyde PMC leakage less than or equal to 5%)
c1ccc(CCCc2ccccn2)cc1 [Material 497]	J (Melamine formaldehyde PMC leakage less than or equal to 5%)
CC/C=C\CCOC(=O)c1ccccc1O [Material 537]	J (Melamine formaldehyde PMC leakage less than or equal to 5%)
CC(C)=CCCC(C)=CCCC(C)=CCO [Material 369]	J (Melamine formaldehyde PMC leakage less than or equal to 5%)
CCCCCCCCCC(=O)OCC [Material 397]	J (Melamine formaldehyde PMC leakage less than or equal to 5%)
COc1ccccc1-c1ccccc1 [Material 22]	J (Melamine formaldehyde PMC leakage less than or equal to 5%)
CC1OC(C)C2Cc3ccccc3C2O1 (stereo not shown) [Material 141]	J (Melamine formaldehyde PMC leakage less than or equal to 5%)
CC(=CC#N)CCc1ccccc1 [Material 505]	J (Melamine formaldehyde PMC leakage less than or equal to 5%)
COc1ccc(C(=O)c2ccccc2)c(O)c1 [Material 13]	J (Melamine formaldehyde PMC leakage less than or equal to 5%)
CC(C)=CCCC(C)=CCCc1ccncc1 [Material 135]	J (Melamine formaldehyde PMC leakage less than or equal to 5%)
CC(C)=CCCC(C)=CCC1CCCC1=O (stereo not shown) [Material 307]	J (Melamine formaldehyde PMC leakage less than or equal to 5%)
CCCCCCCCCCCCOC(C)=O [Material 175]	J (Melamine formaldehyde PMC leakage less than or equal to 5%)
C=C1C=CC(C(C)C)CCC(C)=CCC1 (stereo not shown) [Material 296]	J (Melamine formaldehyde PMC leakage less than or equal to 5%)

same assay, conditions: code J of the Comment Code column, Table 1

Structure (SMILES)	Comment Code: Melamine formaldehyde PMC leakage
C[C@@H]1CC[C@H]2[C@@H]1[C@H]1[C@@H](CC[C@]2(C)O)C1(C)C [Material 1140]	J (Melamine formaldehyde PMC leakage less than or equal to 5%)

same assay, conditions: code letter J

Structure (SMILES)	Comment Code: Melamine formaldehyde PMC leakage
CCCCCOC(=O)c1ccccc1 [Material 672]	J (Melamine formaldehyde PMC leakage less than or equal to 5%)
C/C=C(\C)C(=O)OCC/C=C\CC [Material 536]	J (Melamine formaldehyde PMC leakage less than or equal to 5%)
C[C@@H]1CC[C@H]2[C@@H]1[C@H]1[C@@H](CC[C@]2(C)O)C1(C)C [Material 1140]	J (Melamine formaldehyde PMC leakage less than or equal to 5%)
COC1CC2CC1C1CC(C=O)CC21 (stereo not shown) [Material 1027]	J (Melamine formaldehyde PMC leakage less than or equal to 5%)
CC(C)C1OCCC2(CC3CCC2(C)C3(C)C)O1 (stereo not shown) [Material 659]	J (Melamine formaldehyde PMC leakage less than or equal to 5%)
CC=CCOCC/C=C\CC [Material 19]	J (Melamine formaldehyde PMC leakage less than or equal to 5%)
CC1OC(C)C2Cc3ccccc3C2O1 (stereo not shown) [Material 141]	J (Melamine formaldehyde PMC leakage less than or equal to 5%)
CC(C)CC(=O)OCc1ccccc1 [Material 645]	J (Melamine formaldehyde PMC leakage less than or equal to 5%)
COC(=O)C=C(C)CCC=C(C)C [Material 111]	J (Melamine formaldehyde PMC leakage less than or equal to 5%)
CC=Cc1ccc(OC(C)=O)c(OC)c1 [Material 213]	J (Melamine formaldehyde PMC leakage less than or equal to 5%)
